Reference: article PMC1570494
Results are given in words; binding and its absence hold for the method and conditions named. For some assays here: In cells and extracts the contact can be indirect. Some results given as binding are weak or reduced against the parent protein; the word gives no strength.

The chains behind the UniProt entries cited, without tags or fusion partners. Where a name states a change or a piece, a line headed by the entry shows the natural chain unless it says otherwise. Residues count along the entry.
UniProt P04608: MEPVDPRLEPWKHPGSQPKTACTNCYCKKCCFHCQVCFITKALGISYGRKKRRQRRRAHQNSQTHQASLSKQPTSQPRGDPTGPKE
UniProt P51532: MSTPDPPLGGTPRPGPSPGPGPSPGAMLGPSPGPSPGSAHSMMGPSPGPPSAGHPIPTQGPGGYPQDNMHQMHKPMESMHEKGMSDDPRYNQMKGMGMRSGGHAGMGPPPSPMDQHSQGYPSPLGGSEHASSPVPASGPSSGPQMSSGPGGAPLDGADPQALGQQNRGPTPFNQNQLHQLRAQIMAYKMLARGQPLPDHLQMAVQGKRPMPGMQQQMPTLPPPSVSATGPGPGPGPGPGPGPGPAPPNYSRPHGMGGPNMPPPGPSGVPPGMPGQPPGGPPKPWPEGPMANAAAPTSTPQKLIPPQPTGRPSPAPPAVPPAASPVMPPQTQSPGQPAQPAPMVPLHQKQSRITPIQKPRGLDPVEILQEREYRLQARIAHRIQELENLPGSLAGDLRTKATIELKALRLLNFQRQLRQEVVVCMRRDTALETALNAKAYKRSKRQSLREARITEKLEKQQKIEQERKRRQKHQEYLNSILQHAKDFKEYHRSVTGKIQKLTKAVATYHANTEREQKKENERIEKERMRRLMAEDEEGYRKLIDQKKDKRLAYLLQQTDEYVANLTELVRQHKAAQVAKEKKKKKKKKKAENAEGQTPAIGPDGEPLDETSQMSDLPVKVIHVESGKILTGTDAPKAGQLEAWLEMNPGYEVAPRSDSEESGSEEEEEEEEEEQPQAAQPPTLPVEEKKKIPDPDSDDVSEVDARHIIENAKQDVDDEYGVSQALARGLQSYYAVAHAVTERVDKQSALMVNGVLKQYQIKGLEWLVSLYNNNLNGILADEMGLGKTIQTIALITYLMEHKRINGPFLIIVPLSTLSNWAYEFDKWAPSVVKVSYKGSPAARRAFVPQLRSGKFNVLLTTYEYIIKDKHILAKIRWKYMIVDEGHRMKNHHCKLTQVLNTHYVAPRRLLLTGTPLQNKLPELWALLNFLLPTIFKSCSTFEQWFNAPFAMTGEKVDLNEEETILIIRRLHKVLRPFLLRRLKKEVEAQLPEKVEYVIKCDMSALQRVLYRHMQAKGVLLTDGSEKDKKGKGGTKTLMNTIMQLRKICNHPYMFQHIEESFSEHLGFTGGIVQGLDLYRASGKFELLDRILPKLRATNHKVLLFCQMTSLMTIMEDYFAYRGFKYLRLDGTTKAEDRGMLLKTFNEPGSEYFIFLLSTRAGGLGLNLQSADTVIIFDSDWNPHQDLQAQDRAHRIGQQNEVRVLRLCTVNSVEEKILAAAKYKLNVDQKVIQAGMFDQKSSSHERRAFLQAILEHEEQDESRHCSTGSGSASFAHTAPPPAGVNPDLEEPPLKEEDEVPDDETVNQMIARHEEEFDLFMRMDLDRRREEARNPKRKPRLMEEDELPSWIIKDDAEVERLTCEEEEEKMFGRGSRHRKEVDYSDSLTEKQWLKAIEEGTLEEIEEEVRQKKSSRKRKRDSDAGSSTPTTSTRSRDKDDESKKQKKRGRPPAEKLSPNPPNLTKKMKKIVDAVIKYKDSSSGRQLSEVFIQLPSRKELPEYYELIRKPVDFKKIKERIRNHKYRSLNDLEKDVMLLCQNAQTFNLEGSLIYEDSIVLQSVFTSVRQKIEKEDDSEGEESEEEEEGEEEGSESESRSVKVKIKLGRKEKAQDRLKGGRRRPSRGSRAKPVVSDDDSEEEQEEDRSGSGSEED
BRG1-N (N-terminal residues 1–282): residues 1-282 of P51532
UniProt O60563: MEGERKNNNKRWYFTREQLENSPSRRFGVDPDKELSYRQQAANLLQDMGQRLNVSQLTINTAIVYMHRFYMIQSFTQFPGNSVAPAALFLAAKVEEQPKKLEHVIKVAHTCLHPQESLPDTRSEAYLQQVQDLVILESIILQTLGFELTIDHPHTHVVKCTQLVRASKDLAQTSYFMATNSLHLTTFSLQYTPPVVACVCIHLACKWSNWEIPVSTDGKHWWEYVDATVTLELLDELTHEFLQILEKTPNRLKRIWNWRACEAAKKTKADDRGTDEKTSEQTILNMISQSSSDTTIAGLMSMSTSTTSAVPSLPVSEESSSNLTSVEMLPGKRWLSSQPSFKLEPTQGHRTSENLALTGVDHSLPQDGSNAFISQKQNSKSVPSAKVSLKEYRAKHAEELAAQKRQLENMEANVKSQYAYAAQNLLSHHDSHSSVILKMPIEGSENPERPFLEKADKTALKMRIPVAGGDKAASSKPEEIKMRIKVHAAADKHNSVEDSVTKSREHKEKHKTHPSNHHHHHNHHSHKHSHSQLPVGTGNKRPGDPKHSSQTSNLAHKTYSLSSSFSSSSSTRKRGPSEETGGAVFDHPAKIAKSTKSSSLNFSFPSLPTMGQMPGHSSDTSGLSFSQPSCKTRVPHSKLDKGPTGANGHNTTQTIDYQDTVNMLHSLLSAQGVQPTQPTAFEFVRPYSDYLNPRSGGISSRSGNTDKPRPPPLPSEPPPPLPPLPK

Assays:
[1] = biological target: GST-Tat, wild-type, unacetylated (HIV-1) (UniProt P04608); assay: pull-down; only the target purified
[2] = biological target: acetylated GST-Tat, wild-type (incubated with p300 and acetyl-CoA) (HIV-1) (UniProt P04608); assay: pull-down; only the target purified
[3] = biological target: BRG1-N (N-terminal residues 1–282) (UniProt P51532); assay: pull-down; only the target purified
[4] = biological target: GST-Tat, wild-type, unacetylated (HIV-1) (UniProt P04608); assay: pull-down; both purified

35S-BRG1, wild-type (from UniProt P51532 1-1647)
binding [1]: binds | binding [2]: binds

35S-Tat, acetylated (from UniProt P04608 1-86)
binding [3]: binds

35S-Tat, unacetylated (from UniProt P04608 1-86)
binding [3]: binds

cyclin T1/cdk9 complex, purified (from UniProt O60563 1-726; P50750 1-372)
binding [4]: binds
